{"source": "PubChem BioAssay AID1259254 (NCATS, 2017)", "assay": "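Gene knock-downs that lead to re-replication, shown by excess G2 DNA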 (primary screen)", "cell system": "human HCT116 colorectal cancer cells", "knock-down reagent": "single siRNA against human genes", "time to read-out": "3 days", "measured": "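Nuclei stained with Hoechst and imaged; cell-cycle phase assigned by DNA content; G2 share scaled per plate, non-targeting siRNA 0%, GMNN siRNA 100%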", "reading the numbers": "G2 robust z-score and G2 cells, % of GMNN control: higher = more G2 cells, more excess DNA replication", "call rule": "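Active siRNAs have a G2 robust z of 5 or more median absolute deviations over the median, which in these data means about 38% or higher of GMNN control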", "note": "Here is a random part of about 59,000 deposited reagents. In the full data, about 1,550 (2.6%) were called active. 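G2 share is only a proxy for re-replication; each gene was hit by three separate siRNAs, and active genes were retested.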 Reagents against one gene are numbered here. Further read-outs or replicates are left out here. Not stated in the record: the amount of reagent."}
{"gene symbol": "GPR174 (G protein-coupled receptor 174)", "siRNA no.": 1, "G2 robust z-score": -0.563, "G2 cells, % of GMNN control": -0.993, "outcome": "inactive"}
{"gene symbol": "GPR174 (G protein-coupled receptor 174)", "siRNA no.": 2, "G2 robust z-score": -0.451, "G2 cells, % of GMNN control": -0.204, "outcome": "inactive"}
{"gene symbol": "GPR174 (G protein-coupled receptor 174)", "siRNA no.": 3, "G2 robust z-score": -0.354, "G2 cells, % of GMNN control": 0.474, "outcome": "inactive"}
{"gene symbol": "COP1 (COP1 E3 ubiquitin ligase)", "siRNA no.": 1, "G2 robust z-score": 5.07, "G2 cells, % of GMNN control": 38.6, "outcome": "active"}
{"gene symbol": "COP1 (COP1 E3 ubiquitin ligase)", "siRNA no.": 2, "G2 robust z-score": 3.18, "G2 cells, % of GMNN control": 25.4, "outcome": "inactive"}
{"gene symbol": "COP1 (COP1 E3 ubiquitin ligase)", "siRNA no.": 3, "G2 robust z-score": 0.978, "G2 cells, % of GMNN control": 9.85, "outcome": "inactive"}

Ordered by “G2 cells, % of GMNN control” (low to high): some entries from above.
{"gene symbol": "GPR174 (G protein-coupled receptor 174)", "siRNA no.": 1, "G2 robust z-score": -0.563, "G2 cells, % of GMNN control": -0.993, "outcome": "inactive"}
{"gene symbol": "GPR174 (G protein-coupled receptor 174)", "siRNA no.": 2, "G2 robust z-score": -0.451, "G2 cells, % of GMNN control": -0.204, "outcome": "inactive"}

The listing continues.
{"gene symbol": "ZC3H18-DT (ZC3H18 divergent transcript)", "siRNA no.": 1, "G2 robust z-score": -0.0764, "G2 cells, % of GMNN control": 2.43, "outcome": "inactive"}
{"gene symbol": "ZC3H18-DT (ZC3H18 divergent transcript)", "siRNA no.": 2, "G2 robust z-score": -1.46, "G2 cells, % of GMNN control": -7.29, "outcome": "inactive"}
{"gene symbol": "ZC3H18-DT (ZC3H18 divergent transcript)", "siRNA no.": 3, "G2 robust z-score": -0.77, "G2 cells, % of GMNN control": -2.45, "outcome": "inactive"}
{"gene symbol": "SPAG8 (sperm associated antigen 8)", "siRNA no.": 1, "G2 robust z-score": 1.89, "G2 cells, % of GMNN control": 16.3, "outcome": "inactive"}
{"gene symbol": "SPAG8 (sperm associated antigen 8)", "siRNA no.": 2, "G2 robust z-score": -0.776, "G2 cells, % of GMNN control": -2.49, "outcome": "inactive"}
{"gene symbol": "SPAG8 (sperm associated antigen 8)", "siRNA no.": 3, "G2 robust z-score": -0.219, "G2 cells, % of GMNN control": 1.43, "outcome": "inactive"}
{"gene symbol": "DEPP1 (DEPP autophagy regulator 1)", "siRNA no.": 1, "G2 robust z-score": -0.0188, "G2 cells, % of GMNN control": 2.83, "outcome": "inactive"}
{"gene symbol": "DEPP1 (DEPP autophagy regulator 1)", "siRNA no.": 2, "G2 robust z-score": -0.306, "G2 cells, % of GMNN control": 0.814, "outcome": "inactive"}
{"gene symbol": "DEPP1 (DEPP autophagy regulator 1)", "siRNA no.": 3, "G2 robust z-score": 0.158, "G2 cells, % of GMNN control": 4.08, "outcome": "inactive"}
{"gene symbol": "CCDC50 (coiled-coil domain containing 50)", "siRNA no.": 1, "G2 robust z-score": 0.336, "G2 cells, % of GMNN control": 5.33, "outcome": "inactive"}
{"gene symbol": "CCDC50 (coiled-coil domain containing 50)", "siRNA no.": 2, "G2 robust z-score": 1.81, "G2 cells, % of GMNN control": 15.7, "outcome": "inactive"}
{"gene symbol": "CCDC50 (coiled-coil domain containing 50)", "siRNA no.": 3, "G2 robust z-score": 3.32, "G2 cells, % of GMNN control": 26.3, "outcome": "inactive"}
